{"sequences": {"note": "Amino acid sequences for entries named in this document (tags omitted). A change or cut given only in a name is not applied to a line headed by its entry.", "UniProt P19793": "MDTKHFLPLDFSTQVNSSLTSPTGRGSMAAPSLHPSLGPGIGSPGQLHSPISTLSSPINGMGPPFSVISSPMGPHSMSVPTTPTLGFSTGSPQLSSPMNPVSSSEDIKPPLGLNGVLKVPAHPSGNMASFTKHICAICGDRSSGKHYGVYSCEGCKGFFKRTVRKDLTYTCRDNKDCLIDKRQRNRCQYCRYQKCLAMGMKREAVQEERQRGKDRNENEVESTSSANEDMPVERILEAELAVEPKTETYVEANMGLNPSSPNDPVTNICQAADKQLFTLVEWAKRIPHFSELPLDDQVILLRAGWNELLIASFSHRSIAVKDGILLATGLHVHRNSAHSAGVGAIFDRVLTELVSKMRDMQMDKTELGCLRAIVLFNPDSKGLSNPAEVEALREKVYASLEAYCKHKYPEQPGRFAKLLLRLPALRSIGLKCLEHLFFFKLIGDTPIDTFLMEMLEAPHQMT"}, "source": "PubChem BioAssay (Tox21)", "note": "Several values for one entry are separate records, joined by “and”; a condition that tells them apart may be missing. Equal values may be shown once. This list was built around the results that the source calls inconclusive (neither active nor inactive); the mix of calls is not that of the screen. Where the call is inconclusive, the potency comes from a doubtful curve fit. Activity calls are given as the source filed them. Calls come from the whole dose curve. % is set by controls: 0 for no effect and ±100 for the full control effect; potency is the fitted concentration of half-maximal effect."}
{"target": "Retinoic acid receptor RXR-alpha (Homo sapiens) (UniProt P19793)", "test": "qHTS assay to identify small molecule agonists of the RXR signaling pathway (AID 1159527); note: nearly all actives have a fitted effect of over 35% in size", "conditions": "HEK293T RXRa-UAS-bla, beta-lactamase ratio, 16 h; activation: at 76.8 µM (top of the series) unless noted", "procedure,_shortened": "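Cells plated at 2,000/well, rested 5 hr at 37 C, pin-dosed with DMSO compound solutions, incubated 16 hr, then loaded with B/G FRET substrate for 2 hr at RT before dual-emission fluorescence reading.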"}
{"smiles": "Nc1ccn([C@H]2CC[C@@H](CO)O2)c(=O)n1", "Potency": "inconclusive: 61.6 µM [falling, partial curve, poor fit]", "activation": "inconclusive: 15.7%"}
{"smiles": "CCCOCC(C)O", "note": "(stereo not drawn)", "activation": "inconclusive: 22%"}
{"smiles": "O=C(O)C1=NN(c2ccc(S(=O)(=O)O)cc2)C(=O)C1", "Potency": "inactive"}
{"smiles": "C/C(=N\\O)[C@@H](C)NCC(C)(C)CN[C@H](C)/C(C)=N/O", "Potency": "inactive"}
{"smiles": "O=C(/C=C/c1ccc(O)c(O)c1)O[C@@H]1C[C@](O)(C(=O)O)C[C@@H](O)[C@H]1O", "Potency": "inactive"}
{"smiles": "Cc1ccccc1C(OCCN(C)C)c1ccccc1", "note": "(stereo not drawn)", "Potency": "inconclusive: 19.5 µM [rising, partial curve, poor fit] and inconclusive: 38.9 µM [rising, partial curve, poor fit]", "activation": "inconclusive: -0.389% [at 35.3 µM]"}
{"smiles": "C=CC(=O)NCOCCCC", "Potency": "inconclusive: 43.6 µM [activator, partial curve, poor fit]", "activation": "inconclusive: 8.59%"}
{"smiles": "COc1ccc(CN(CCN(C)C)c2ncccn2)cc1", "Potency": "inactive"}
{"smiles": "CCCC[P+](CCCC)(CCCC)CCCC", "activation": "inconclusive: -21.6%"}
{"smiles": "CC1CCC2CC1C2(C)C", "note": "(stereo not drawn)", "activation": "inconclusive: 17.5%"}
{"smiles": "O=C(O)c1cc(=O)c2c(OCC(O)COc3cccc4oc(C(=O)O)cc(=O)c34)cccc2o1", "Potency": "inconclusive: 12.3 µM [inhibitor, single point]", "activation": "inconclusive: -1.28% [at 35.3 µM]"}
{"smiles": "O=C(O)c1cc(N=Nc2ccc(S(=O)(=O)Nc3ccccn3)cc2)ccc1O", "Potency": "inconclusive: 15.5 µM [activator, full curve]", "activation": "inconclusive: 21.4%"}
{"smiles": "OCCOCCOCCO", "Potency": "inconclusive: 54.9 µM [activator]", "activation": "inconclusive: 32.5%"}
{"smiles": "Cc1ccc(O)cn1", "Potency": "inactive"}
{"smiles": "Cc1ccc(C)c(OCCCC(C)(C)C(=O)O)c1", "Potency": "inconclusive: 54.9 µM [rising, partial curve, poor fit]", "activation": "inconclusive: 16.2%"}
{"smiles": "Cc1ccc(N)c([N+](=O)[O-])c1", "activation": "inconclusive: 8.11%"}
{"smiles": "CCCC(C)=O", "Potency": "inconclusive: 24.9 µM [activator]"}
{"smiles": "Cc1ccc(S(=O)(=O)N=C=O)cc1", "activation": "inconclusive: 9.35%"}
{"smiles": "COc1c2ccoc2cc2oc(=O)ccc12", "Potency": "inactive"}
{"smiles": "COc1c2occc2cc2ccc(=O)oc12", "Potency": "inconclusive: 49 µM [activator, partial curve, poor fit]", "activation": "inconclusive: 15.6%"}
{"smiles": "CCCCCC(=O)OCCc1ccccc1", "Potency": "inactive"}
{"smiles": "ON=C1CCCCC1", "Potency": "inconclusive: 49 µM [rising, partial curve, poor fit]", "activation": "inconclusive: 20.1%"}
{"smiles": "CC(C)CC(=O)CC(C)CC(C)C", "note": "(stereo not drawn)", "activation": "inconclusive: 3.85%"}
{"smiles": "FC(F)(F)c1ccc(Cl)c(Cl)c1", "activation": "inconclusive: 11.4%"}
{"smiles": "OB(O)O", "Potency": "active: 15.5 µM", "activation": "inconclusive: 20.1%"}
{"smiles": "O=C(OCCOCCOC(=O)c1ccccc1)c1ccccc1", "Potency": "inconclusive: 27.5 µM [rising, partial curve, poor fit]", "activation": "inconclusive: -23.7%"}
{"smiles": "CN(C)CCOCCO", "Potency": "inactive"}
{"smiles": "CCCCCCCCCCCCOCCO", "Potency": "inconclusive: 21.9 µM [rising, full curve, poor fit]", "activation": "inconclusive: -24.9% [at 35.3 µM]"}
{"smiles": "CC1(C)[C@@H]2CC[C@@]1(C)C(=O)C2", "activation": "inconclusive: 22.7% and inconclusive: -23.4%"}
{"smiles": "Cc1noc(NS(=O)(=O)c2ccc(N)cc2)c1C", "Potency": "inconclusive: 21.8 µM [activator]", "activation": "inconclusive: 11.9%"}
{"smiles": "O=C(O)C(=O)O", "activation": "inconclusive: 16.1%"}
{"smiles": "CCCCCCCCCCO", "activation": "inconclusive: 17%"}
{"smiles": "CC(C)(C)[C@@H](O)[C@@H](Cc1ccc(Cl)cc1)n1cncn1", "Potency": "inconclusive: 43.4 µM [activator, partial curve]", "activation": "inconclusive: 10.7%"}
{"smiles": "CN1CCC[C@@H]1c1cccnc1", "Potency": "inactive"}
{"smiles": "CC(=O)OCc1ccco1", "activation": "inconclusive: 26.3%"}
{"smiles": "Brc1ccc(Oc2ccc(Br)cc2)cc1", "Potency": "inconclusive: 24.5 µM [inhibitor, partial curve]", "activation": "inconclusive: -21.4%"}
{"smiles": "CCOC=C(C(=O)OCC)C(=O)OCC", "Potency": "inactive"}
{"smiles": "CCCCCCCCSCC", "Potency": "inactive"}
